From PMC4956616

The chains behind the UniProt entries cited, without tags or fusion partners. Where a name states a change or a piece, a line headed by the entry shows the natural chain unless it says otherwise. Residues count along the entry.
UniProt P40616, residues 15-181: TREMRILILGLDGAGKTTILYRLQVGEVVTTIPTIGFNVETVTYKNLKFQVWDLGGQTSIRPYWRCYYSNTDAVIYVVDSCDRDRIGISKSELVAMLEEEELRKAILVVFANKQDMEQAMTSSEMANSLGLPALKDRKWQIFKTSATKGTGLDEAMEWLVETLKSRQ
UniProt Q9Y6D6: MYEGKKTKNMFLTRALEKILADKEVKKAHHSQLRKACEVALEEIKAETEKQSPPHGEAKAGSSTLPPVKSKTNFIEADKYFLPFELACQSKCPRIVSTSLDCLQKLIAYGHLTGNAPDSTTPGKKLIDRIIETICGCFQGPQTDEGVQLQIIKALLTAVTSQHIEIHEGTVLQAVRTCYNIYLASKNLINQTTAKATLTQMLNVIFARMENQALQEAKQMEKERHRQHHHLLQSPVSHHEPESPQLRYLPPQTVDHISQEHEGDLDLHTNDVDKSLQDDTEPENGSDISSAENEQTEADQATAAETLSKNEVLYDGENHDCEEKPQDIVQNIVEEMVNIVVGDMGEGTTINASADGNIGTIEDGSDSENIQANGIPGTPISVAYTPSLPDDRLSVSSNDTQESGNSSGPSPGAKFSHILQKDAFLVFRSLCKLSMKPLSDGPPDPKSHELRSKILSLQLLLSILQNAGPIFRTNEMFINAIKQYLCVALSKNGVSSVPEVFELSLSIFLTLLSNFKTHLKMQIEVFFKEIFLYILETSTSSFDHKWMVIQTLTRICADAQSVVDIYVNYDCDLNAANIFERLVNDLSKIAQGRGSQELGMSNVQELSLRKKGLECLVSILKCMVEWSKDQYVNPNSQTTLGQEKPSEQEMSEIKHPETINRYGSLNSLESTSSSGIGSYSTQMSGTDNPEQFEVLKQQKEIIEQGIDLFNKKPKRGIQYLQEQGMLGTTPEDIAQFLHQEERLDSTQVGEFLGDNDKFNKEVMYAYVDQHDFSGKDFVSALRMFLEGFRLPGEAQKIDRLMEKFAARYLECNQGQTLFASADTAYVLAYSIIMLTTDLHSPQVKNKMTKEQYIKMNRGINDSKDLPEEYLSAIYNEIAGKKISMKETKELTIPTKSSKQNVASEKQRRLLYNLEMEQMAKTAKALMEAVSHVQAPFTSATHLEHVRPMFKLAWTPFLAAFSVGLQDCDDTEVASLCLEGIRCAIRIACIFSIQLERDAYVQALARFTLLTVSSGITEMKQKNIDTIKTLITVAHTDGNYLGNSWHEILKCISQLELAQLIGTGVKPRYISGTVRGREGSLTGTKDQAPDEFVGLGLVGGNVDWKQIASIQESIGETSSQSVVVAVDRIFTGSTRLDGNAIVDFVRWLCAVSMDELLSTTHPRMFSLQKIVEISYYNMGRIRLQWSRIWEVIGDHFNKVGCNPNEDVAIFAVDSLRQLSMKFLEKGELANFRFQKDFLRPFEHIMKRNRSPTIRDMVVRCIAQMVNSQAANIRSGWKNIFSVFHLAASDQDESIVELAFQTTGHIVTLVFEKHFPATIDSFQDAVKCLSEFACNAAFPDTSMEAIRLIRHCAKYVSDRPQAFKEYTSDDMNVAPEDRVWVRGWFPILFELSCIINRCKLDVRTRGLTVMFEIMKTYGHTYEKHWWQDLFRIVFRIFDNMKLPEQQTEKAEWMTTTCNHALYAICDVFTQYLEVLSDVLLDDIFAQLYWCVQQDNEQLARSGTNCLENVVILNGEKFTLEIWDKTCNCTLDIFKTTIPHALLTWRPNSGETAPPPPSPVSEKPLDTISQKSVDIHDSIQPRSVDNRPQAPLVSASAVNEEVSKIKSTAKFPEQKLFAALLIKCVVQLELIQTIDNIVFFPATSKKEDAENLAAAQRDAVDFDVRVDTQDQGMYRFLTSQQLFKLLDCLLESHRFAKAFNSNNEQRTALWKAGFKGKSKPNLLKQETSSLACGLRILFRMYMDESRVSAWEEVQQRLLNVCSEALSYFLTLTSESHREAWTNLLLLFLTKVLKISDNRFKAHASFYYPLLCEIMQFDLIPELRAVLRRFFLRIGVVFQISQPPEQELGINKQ

Molecular target: GST-Arl1^ΔN14 (human Arl1 residues 15–181), loaded with GMP-PNP or GDP (human) (UniProt P40616)
Experiment: pull-down; 2 nM GST-Arl1 loaded with GMP-PNP or GDP mixed with 2 nM His6-tagged protein in 500 μl buffer C (20 mM Tris-HCl, 110 mM KCl, 1 mM DTT, 0.1% Triton X-100) plus 5 mM MgCl2, 4°C 30 min, captured on glutathione-Sepharose; SDS-PAGE, Coomassie; both purified

Row | binding | Substance
1 | binds | BIG1 DCB domain truncated at the N terminus to residue 23 (from UniProt Q9Y6D6) (domain or fragment)
2 | no binding | BIG1 DCB domain truncated at the N terminus to residue 51 (from UniProt Q9Y6D6) (domain or fragment)
3 | no binding | BIG1 DCB domain truncated at the N terminus to residue 61 (from UniProt Q9Y6D6) (domain or fragment)

These are yes or no findings as the source states them, for the method shown. A result given as binding can be weak or reduced; the word gives no strength.
